Reference: PMC9205938

Molecular target: zinc finger domain of ZFP281 (FLAG-tagged ZFP281 truncated protein)
Assay: co-IP; N-terminally FLAG-tagged ZFP281 (full length, truncated) or BRCA2 truncated proteins expressed in 293 T cells for 48 hrs; ANTI-FLAG M2 affinity gel, western blot

B1: EMSY in 293 cells (protein, UniProt Q7Z589 1-1322)
chain: MPVVWPTLLDLSRDECKRILRKLELEAYAGVISALRAQGDLTKEKKDLLGELSKVLSISTERHRAEVRRAVNDERLTTIAHNMSGPNSSSEWSIEGRRLVPLMPRLVPQTAFTVTANAVANAAIQHNASLPVPAETGSKEVVCYSYTSTTSTPTSTPVPSGSIATVKSPRPASPASNVVVLPSGSTVYVKSVSCSDEDEKPRKRRRTNSSSSSPVVLKEVPKAVVPVSKTITVPVSGSPKMSNIMQSIANSLPPHMSPVKITFTKPSTQTTNTTTQKVIIVTTSPSSTFVPNILSKSHNYAAVTKLVPTSVIASTTQKPPVVITASQSSLVSNSSSGSSSSTPSPIPNTVAVTAVVSSTPSVVMSTVAQGVSTSAIKMASTRLPSPKSLVSAPTQILAQFPKQHQQSPKQQLYQVQQQTQQQVAQPSPVSHQQQPQQSPLPPGIKPTIQIKQESGVKIITQQVQPSKILPKPVTATLPTSSNSPIMVVSSNGAIMTTKLVTTPTGTQATYTRPTVSPSIGRMAATPGAATYVKTTSGSIITVVPKSLATLGGKIISSNIVSGTTTKITTIPMTSKPNVIVVQKTTGKGTTIQGLPGKNVVTTLLNAGGEKTIQTVPTGAKPAILTATRPITKMIVTQPKGIGSTVQPAAKIIPTKIVYGQQGKTQVLIKPKPVTFQATVVSEQTRQLVTETLQQASRVAEAGNSSIQEGKEEPQNYTDSSSSSTESSQSSQDSQPVVHVIASRRQDWSEHEIAMETSPTIIYQDVSSESQSATSTIKALLELQQTTVKEKLESKPRQPTIDLSQMAVPIQMTQEKRHSPESPSIAVVESELVAEYITTERTDEGTEVAFPLLVSHRSQPQQPSQPQRTLLQHVAQSQTATQTSVVVKSIPASSPGAITHIMQQALSSHTAFTKHSEELGTEEGEVEEMDTLDPQTGLFYRSALTQSQSAKQQKLSQPPLEQTQLQVKTLQCFQTKQKQTIHLQADQLQHKLPQMPQLSIRHQKLTPLQQEQAQPKPDVQHTQHPMVAKDRQLPTLMAQPPQTVVQVLAVKTTQQLPKLQQAPNQPKIYVQPQTPQSQMSLPASSEKQTASQVEQPIITQGSSVTKITFEGRQPPTVTKITGGSSVPKLTSPVTSISPIQASEKTAVSDILKMSLMEAQIDTNVEHMIVDPPKKALATSMLTGEAGSLPSTHMVVAGMANSTPQQQKCRESCSSPSTVGSSLTTRKIDPPAVPATGQFMRIQNVGQKKAEESPAEIIIQAIPQYAIPCHSSSNVVVEPSGLLELNNFTSQQLDDEETAMEQDIDSSTEDGTEPSPSQSSAERS
- binding: binds

No constants are given. Whether binding was seen depends on the method and setting. In cells and extracts the contact can be indirect. A result given as binding can be weak or reduced; the word gives no strength.
